Assay results reported in PubChem BioAssay AID540276 (National Center for Advancing Translational Sciences (NCATS), 2011).
In all, about 300,000 compounds went through this assay and about 5,400 (1.8%) were called active. Inconclusive means that the source gave no clear call. Such entries were picked first, then a sample of the others. The call rests on the fitted dose curve; tested in HEK293 cells. Potencies beside an inconclusive call are fits to weak or partial responses and may not hold up.

test: qHTS for inhibitors of binding or entry into cells for Marburg Virus; settings: Marburg virus pseudotyped entry inhibition, cell reporter; activity change, negative = inhibition: at 37.8 µM (top of the series) unless noted
On the % scale 0 is the no-effect control and ±100 the full control effect; potency means the concentration at half of the fitted maximal effect.

Row | SMILES | Potency | activity change, negative = inhibition
1 | Cc1ccc(C(=O)Oc2coc(CSc3nnc(NC(=O)c4cccs4)s3)cc2=O)cc1 | inconclusive: 0.1 µM [activator, full curve, poor fit] | –
2 | CCOc1ccc(C(=O)Nc2nnc(C3=COCCO3)o2)cc1 | – | inactive: 10.4%
3 | Cc1nn(-c2ccccc2)c(N2CCCC2)c1/C=N/Nc1ccc(S(N)(=O)=O)cc1[N+](=O)[O-] | inconclusive: 10 µM [inhibitor, partial curve, poor fit] | –
4 | CCCN(CCC)c1ccc(/C=N/NC(=O)CN2CCOCC2)cc1 | – | inactive: 3.35% [at 46.1 µM]
5 | Cc1sc2ncnc(NC3CCN(Cc4ccccc4)CC3)c2c1C | inconclusive: 1.41 µM [inhibitor, full curve, poor fit] | –
6 | CCCCOC(=O)c1ccc(NC(=S)NC(=O)c2c(Br)c(C)nn2C)cc1 | inconclusive: 3.16 µM [inhibitor, single point] | –
7 | C=CCN(CC=C)CCOc1cccc2ccccc12 | inconclusive: 0.501 µM [activator, single point] | –
8 | O=C(CCC(=O)OCCCC(F)(F)C(F)(F)F)NC1CCCCC1 | – | inactive: 5.03%
9 | CC(C)=CCN1CCN(Cc2cccnc2)CC1CCO (stereo not given) | inconclusive: 15.8 µM [activator, single point] | –
10 | Cc1ccc2nc(C)c(C(=O)N/N=C/c3ccco3)cc2c1 | inconclusive: 4.47 µM [inhibitor, full curve] | –
11 | N#CCCN(C(=O)COC(=O)c1ccc(S(=O)(=O)N2CCCCCC2)cc1)c1ccccc1 | inconclusive: 25.1 µM [activator, single point] | –
12 | COc1cc(C(=O)NCc2ccncc2)cc(Br)c1OCc1ccccc1 | inconclusive: 35.5 µM [inhibitor, single point] | –
13 | COc1ccc(NC2=Nc3cccc4cccc2c34)cc1OC | inconclusive: 0.0046 µM [inhibitor, full curve, poor fit] | –
14 | Cn1c(=O)c2c(nc(CN3CCN(C(=O)c4ccco4)CC3)n2Cc2ccccc2F)n(C)c1=O | – | inactive: -5.92%
15 | CCOc1ccc(S(=O)(=O)N(C)CCO)cc1-c1nc2c(C(C)(C)C)nn(C)c2c(=O)[nH]1 | inactive | –
16 | CN(Cc1cccnc1)Cc1cn[nH]c1-c1ccc(-c2ccccc2)cc1 | – | inactive: -4.71%
17 | CCOC(=O)N1CCN(C(=O)CCCn2nc(C)c3sc4ccccc4c3c2=O)CC1 | – | inactive: 2.94%
18 | Cc1ccc(NCc2ccc(Cl)nc2)c(NCc2ccc(Cl)nc2)c1 | – | inactive: -14.6% [at 46.1 µM]
19 | CCn1c(=O)c(C(=O)CN(C)CC(=O)Nc2ccccc2Br)c(N)n(Cc2ccccc2)c1=O | inconclusive: 35.5 µM [inhibitor, single point] | –
20 | Cc1ccc(/C=N/NC(=O)COc2ccc(Cl)c(C)c2)o1 | – | inactive: -12.8% [at 46.1 µM]
21 | COc1ccc(N(CC(=O)NCC(C)C)S(=O)(=O)c2ccccc2)cc1 | inconclusive: 7.08 µM [inhibitor, partial curve, poor fit] | –
22 | C/C(=N/N=C1/NC(=O)CC(C(=O)Nc2ccccc2)S1)c1cccs1 (stereo not given) | – | inactive: 13.4%
23 | Cn1ccnc1SCCNC(=O)CCc1nnc(CCCCc2ccccc2)o1 | – | inactive: -0.572% [at 46.1 µM]

Row | SMILES | Potency | activity change, negative = inhibition
24 | O=S(=O)(c1ccc(NC(=S)NCc2ccco2)cc1)N1CCCC1 | – | inactive: 6.47%
25 | COc1cc(C(=O)NCc2nnc(SCC(=O)NC3CCCC3)o2)cc(OC)c1OC | – | inactive: -10.9% [at 46.1 µM]
26 | CC1CN(Cc2nnc(-c3ccccc3)o2)CC(C)O1 (stereo not given) | inconclusive: 2 µM [activator, single point] | –
27 | O=C(N/N=C/c1c(O)ccc2ccccc12)c1[nH]ncc1Br | inconclusive: 15.8 µM [inhibitor, partial curve, poor fit] | –
28 | CCOC(=O)CSc1nnc(CSc2nc3ccccc3s2)n1C | – | inactive: -2.41%
29 | COc1ccc(CCC(=O)NCCc2nc3ccccc3[nH]2)cc1 | inconclusive: 3.16 µM [inhibitor, single point] | –
30 | COc1ccc(COC(=O)CN2C(=O)NC3(CC(C)CC(C)(C)C3)C2=O)cc1F (stereo not given) | inconclusive: 11.2 µM [inhibitor, partial curve, poor fit] | –
31 | S=C(Nc1ccc(Cl)cc1)c1nc2ccccc2s1 | inconclusive: 6.31 µM [activator, single point] | –
32 | Cc1ccccc1CS(=O)(=O)CCC(=O)NCCCN1CCN(c2ccccc2F)CC1 | inactive | –
33 | COc1ccc(CCNCc2ccccc2N2CCCC2)cc1 | inconclusive: 10 µM [inhibitor, partial curve, poor fit] | –
34 | COc1ccc(CNC(=O)C(=O)NCC2OCCN2S(=O)(=O)c2ccc3c(c2)OCCO3)cc1 (stereo not given) | – | inactive: 8.14%
35 | CC(=O)N1c2ccccc2C(C)(c2ccccc2)CC1(C)C (stereo not given) | inconclusive: 14.1 µM [inhibitor, single point] | –
36 | COC(C(=O)Nc1ccc(S(=O)(=O)Nc2ccc(C)c(C)c2)cc1)c1ccccc1 (stereo not given) | inconclusive: 1.12 µM [activator, full curve, poor fit] | –
37 | CSCCC(NC(=O)c1ccc(Cl)cc1)C(=O)OCC(=O)Nc1cc(Cl)ccc1C#N (stereo not given) | inconclusive: 2.82 µM [inhibitor, partial curve, poor fit] | –
38 | Cc1cccc(N2C(N)=C(C#N)C(C#N)(C#N)C2c2ccccc2)c1 (stereo not given) | – | inactive: -25.4%
39 | O=C(Nc1nccs1)c1cc(-c2ccccc2)nn1-c1ccccc1 | inconclusive: 3.16 µM [inhibitor, single point] | –
40 | O=C(CNC(=O)c1ccco1)OCC(=O)c1ccc([N+](=O)[O-])cc1 | – | inactive: 3.7% [at 46.1 µM]
41 | O=C(COC(=O)Cc1cccc(C(F)(F)F)c1)Nc1cccc2ccccc12 | inconclusive: 0.447 µM [activator, partial curve, poor fit] | –
42 | Cc1ccc(S(=O)(=O)Nc2ccccc2/C=N/c2nc3ccccc3n2C)cc1 | inconclusive: 20 µM [inhibitor, single point] | –
43 | COc1ccc(CCNC(=O)CSc2nnc(-c3ccc(F)cc3)c3ccccc23)cc1OC | inconclusive: 10.3 µM [inhibitor, partial curve] | –
44 | COc1ccc2c(Cl)c(C(=O)NCCCn3ccnc3)sc2c1 | inconclusive: 18.3 µM [activator, single point] | –
45 | O=C(NC1CCCc2ccccc21)c1ccc(F)cc1F (stereo not given) | inconclusive: 6.31 µM [inhibitor, single point] | –

Of the compounds above, these have a cyano group.
Row | SMILES | Potency | activity change, negative = inhibition
11 | N#CCCN(C(=O)COC(=O)c1ccc(S(=O)(=O)N2CCCCCC2)cc1)c1ccccc1 | inconclusive: 25.1 µM [activator, single point] | –
37 | CSCCC(NC(=O)c1ccc(Cl)cc1)C(=O)OCC(=O)Nc1cc(Cl)ccc1C#N (stereo not given) | inconclusive: 2.82 µM [inhibitor, partial curve, poor fit] | –
38 | Cc1cccc(N2C(N)=C(C#N)C(C#N)(C#N)C2c2ccccc2)c1 (stereo not given) | – | inactive: -25.4%
